Data from the ROBIN nucleic acid binder screens, doi:10.1002/anie.202211358.

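The test is a small-molecule microarray: each compound is printed twice on a reactive slide, and binding shows as fluorescence of the labelled oligonucleotide after washing. For the PreQ1, TPP and SAM-II riboswitches the laboratory earlier reported (doi:10.1038/s41467-019-09493-3) 1 µM RNA, 2 h, and a rule that included a mean Z-score above 3 (spot signal-to-noise against the whole library), a score well above that on a control array, and duplicate spots agreeing (coefficient of variation under 100). The data file gives only the calls; its cut-offs may differ, and compounds hitting several targets are kept. The calls come from the array alone, and fixing a compound to the slide can hide its binding.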
A compound is marked hit if it was called a hit and none if it was screened but was not.
This is an unselected part of the compounds tested.
A dash means that no call is listed here.

Targets (5′ to 3′):
SAM-II: SAM-II riboswitch RNA pseudoknot, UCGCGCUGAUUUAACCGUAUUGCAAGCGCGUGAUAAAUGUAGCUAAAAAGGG. About 21,000 compounds screened, about 200 hits.
PreQ1: PreQ1 riboswitch RNA pseudoknot, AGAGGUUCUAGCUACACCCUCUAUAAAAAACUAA. From B. subtilis. About 24,000 compounds screened, about 170 hits.
TPP: TPP riboswitch RNA three-way junction, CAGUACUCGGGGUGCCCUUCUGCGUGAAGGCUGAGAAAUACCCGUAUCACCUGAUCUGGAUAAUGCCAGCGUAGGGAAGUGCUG. About 24,000 compounds screened, about 160 hits.

SMILES	SAM-II	PreQ1	TPP
COC(=O)c1ccc(C(Nc2ccccn2)c2ccc3ccc(C)nc3c2O)cc1 (stereo not given)	none	none	none
COc1ccc(C(=O)Oc2cccc(Nc3ncnc4ccccc34)c2)cc1	none	none	none
COc1ccc(CNCc2ccc3[nH]ccc3c2)cc1	none	none	none
Cc1nc(N2CCCCC2)ncc1C(=O)N1C[C@H](c2ccccc2)[C@@H](N)C1	none	none	none
CC(O)c1ccc(C(C)(C)C)cc1 (stereo not given)	none	none	none
N#Cc1cc2c(=O)n(CCCN3CCCC(O)C3)ccc2[nH]c1=O (stereo not given)	none	none	none
O=C(N[C@H](CO)Cc1ccccc1)c1cccc(-c2ccc(O)cc2)c1	none	none	none
O=c1[nH]c2ccc(S(=O)(=O)NCCO)cc2[nH]1	none	none	none
COc1ccc(CNCc2ccccc2C(F)(F)F)cc1OC	none	none	none
C=C1C/C(=C/C)C(=O)O[C@@H]2CCN3CC=C(COC(=O)[C@]1(C)O)[C@H]23	none	none	none
Cc1c(C)n(CCCN(C)C)c2ncnc(NCCO)c12	none	none	none
Cc1ccc([C@H]2CN(C(=O)COc3ccc(-n4cnnn4)cc3)C[C@@H]2N)o1	none	none	none
CNCC=CCOc1cccc(C)c1C.Cl	none	none	none
O=c1c(-c2ccc(Cl)cc2)coc2cc(OC3OC(CO)C(O)C(O)C3O)ccc12 (stereo not given)	none	none	none
O=C1c2ccccc2C(O)(Cc2ccccc2)N1CCCO (stereo not given)	none	none	none
O=c1nc(CNc2ccccc2)[nH]n1Cc1ccc(Cl)cc1	none	none	none
Cc1ccc(Cc2c(C)nn(-c3nc(C)c(C(=O)N4CCN(CCO)CC4)s3)c2C)cc1	-	none	none
COC(=O)c1ccc(Nc2nc3ccccc3c3nnc(C)n23)cc1	-	none	none
O=C(OCCNC1=NS(=O)(=O)c2ccccc21)c1ccc(F)cc1	none	none	none
Cc1ccc(C(=O)c2cc3c(cc2N)OCCO3)cc1	none	none	none
C=C(C)CC(NC(C)c1ccccc1)c1ccco1 (stereo not given)	none	none	none
CCN(CC)S(=O)(=O)c1ccc(NC2c3ccccc3C(=O)N2CCN2CCOCC2)cc1 (stereo not given)	none	none	none
CCCOc1ccc(N2C(=O)CC(SCC(N)C(=O)OCC)C2=O)cc1 (stereo not given)	none	none	none
Nc1nc2ccccc2cc1C(=O)Nc1ccccc1	none	none	none
COc1cc(C=Cc2nc(C#N)c(NCC3CCCO3)o2)cc(OC)c1OC (stereo not given)	-	none	none
CCn1nc(CO)c2c1CCN(C(=O)c1cnc3c(c1)nc(N)n3CC)C2	none	none	none
COc1ccc(-c2noc(-c3cccnc3NCC3CCCO3)n2)cc1 (stereo not given)	-	none	none
CC=C(C)C(=O)N[C@@H](c1ccccc1)[C@@H](O)C(=O)O[C@H]1C[C@@]2(O)[C@@H](OC(=O)c3ccccc3)[C@@H]3[C@]4(OC(C)=O)CO[C@@H]4C[C@H](O)[C@@]3(C)C(=O)[C@H](OC(C)=O)C(=C1C)C2(C)C	none	none	none
COc1ccc(CNCc2cccc(OC)c2OC)cc1	none	none	none
NC(=O)c1csc(N2CCCC(CO)(Cc3ccc(F)cc3)C2)n1 (stereo not given)	none	none	none
COCCCN1CC2(CCN(c3cc(OC(C)C)nc(N)n3)CC2)CC1=O	none	none	none
Cc1ccccc1CN(Cc1cc(C#CCO)cs1)CC(C)C	none	none	none
CCN(CC)C(=O)[C@@H]1C[C@H](N)CN1Cc1cccc2c1sc1ccccc12	none	none	none
COc1ccc2c(c1OC)C(=O)OC2Nc1cc(C)ccn1 (stereo not given)	none	none	none
CC1(C)CC(=O)C=C(Nc2ccccc2O)C1	none	none	none
Cc1c(C)n(CC(O)CNc2ccccc2)c2ccccc12 (stereo not given)	none	none	none
Nc1cnccc1-c1cc(OC(F)(F)F)ccc1Cl	none	none	none
COc1ccc(CNc2ccc3c(c2)ncn3-c2ccc(C)cc2)cc1OC	none	none	none
Clc1ccc(-c2n[nH]cc2CN2CCOC3(CNCCOC3)C2)cc1 (stereo not given)	none	none	none
N#CC1=C(N)Oc2ncnc(O)c2C1c1ccncc1 (stereo not given)	none	none	none